Results on six molecules are retold here after paper doi:10.64898/2025.12.12.693869.

By UniProt entry, the sequences of proteins in these tests, tags left out. Where a name states a change or a piece, a line headed by the entry shows the natural chain unless it says otherwise.
UniProt Q54CB5: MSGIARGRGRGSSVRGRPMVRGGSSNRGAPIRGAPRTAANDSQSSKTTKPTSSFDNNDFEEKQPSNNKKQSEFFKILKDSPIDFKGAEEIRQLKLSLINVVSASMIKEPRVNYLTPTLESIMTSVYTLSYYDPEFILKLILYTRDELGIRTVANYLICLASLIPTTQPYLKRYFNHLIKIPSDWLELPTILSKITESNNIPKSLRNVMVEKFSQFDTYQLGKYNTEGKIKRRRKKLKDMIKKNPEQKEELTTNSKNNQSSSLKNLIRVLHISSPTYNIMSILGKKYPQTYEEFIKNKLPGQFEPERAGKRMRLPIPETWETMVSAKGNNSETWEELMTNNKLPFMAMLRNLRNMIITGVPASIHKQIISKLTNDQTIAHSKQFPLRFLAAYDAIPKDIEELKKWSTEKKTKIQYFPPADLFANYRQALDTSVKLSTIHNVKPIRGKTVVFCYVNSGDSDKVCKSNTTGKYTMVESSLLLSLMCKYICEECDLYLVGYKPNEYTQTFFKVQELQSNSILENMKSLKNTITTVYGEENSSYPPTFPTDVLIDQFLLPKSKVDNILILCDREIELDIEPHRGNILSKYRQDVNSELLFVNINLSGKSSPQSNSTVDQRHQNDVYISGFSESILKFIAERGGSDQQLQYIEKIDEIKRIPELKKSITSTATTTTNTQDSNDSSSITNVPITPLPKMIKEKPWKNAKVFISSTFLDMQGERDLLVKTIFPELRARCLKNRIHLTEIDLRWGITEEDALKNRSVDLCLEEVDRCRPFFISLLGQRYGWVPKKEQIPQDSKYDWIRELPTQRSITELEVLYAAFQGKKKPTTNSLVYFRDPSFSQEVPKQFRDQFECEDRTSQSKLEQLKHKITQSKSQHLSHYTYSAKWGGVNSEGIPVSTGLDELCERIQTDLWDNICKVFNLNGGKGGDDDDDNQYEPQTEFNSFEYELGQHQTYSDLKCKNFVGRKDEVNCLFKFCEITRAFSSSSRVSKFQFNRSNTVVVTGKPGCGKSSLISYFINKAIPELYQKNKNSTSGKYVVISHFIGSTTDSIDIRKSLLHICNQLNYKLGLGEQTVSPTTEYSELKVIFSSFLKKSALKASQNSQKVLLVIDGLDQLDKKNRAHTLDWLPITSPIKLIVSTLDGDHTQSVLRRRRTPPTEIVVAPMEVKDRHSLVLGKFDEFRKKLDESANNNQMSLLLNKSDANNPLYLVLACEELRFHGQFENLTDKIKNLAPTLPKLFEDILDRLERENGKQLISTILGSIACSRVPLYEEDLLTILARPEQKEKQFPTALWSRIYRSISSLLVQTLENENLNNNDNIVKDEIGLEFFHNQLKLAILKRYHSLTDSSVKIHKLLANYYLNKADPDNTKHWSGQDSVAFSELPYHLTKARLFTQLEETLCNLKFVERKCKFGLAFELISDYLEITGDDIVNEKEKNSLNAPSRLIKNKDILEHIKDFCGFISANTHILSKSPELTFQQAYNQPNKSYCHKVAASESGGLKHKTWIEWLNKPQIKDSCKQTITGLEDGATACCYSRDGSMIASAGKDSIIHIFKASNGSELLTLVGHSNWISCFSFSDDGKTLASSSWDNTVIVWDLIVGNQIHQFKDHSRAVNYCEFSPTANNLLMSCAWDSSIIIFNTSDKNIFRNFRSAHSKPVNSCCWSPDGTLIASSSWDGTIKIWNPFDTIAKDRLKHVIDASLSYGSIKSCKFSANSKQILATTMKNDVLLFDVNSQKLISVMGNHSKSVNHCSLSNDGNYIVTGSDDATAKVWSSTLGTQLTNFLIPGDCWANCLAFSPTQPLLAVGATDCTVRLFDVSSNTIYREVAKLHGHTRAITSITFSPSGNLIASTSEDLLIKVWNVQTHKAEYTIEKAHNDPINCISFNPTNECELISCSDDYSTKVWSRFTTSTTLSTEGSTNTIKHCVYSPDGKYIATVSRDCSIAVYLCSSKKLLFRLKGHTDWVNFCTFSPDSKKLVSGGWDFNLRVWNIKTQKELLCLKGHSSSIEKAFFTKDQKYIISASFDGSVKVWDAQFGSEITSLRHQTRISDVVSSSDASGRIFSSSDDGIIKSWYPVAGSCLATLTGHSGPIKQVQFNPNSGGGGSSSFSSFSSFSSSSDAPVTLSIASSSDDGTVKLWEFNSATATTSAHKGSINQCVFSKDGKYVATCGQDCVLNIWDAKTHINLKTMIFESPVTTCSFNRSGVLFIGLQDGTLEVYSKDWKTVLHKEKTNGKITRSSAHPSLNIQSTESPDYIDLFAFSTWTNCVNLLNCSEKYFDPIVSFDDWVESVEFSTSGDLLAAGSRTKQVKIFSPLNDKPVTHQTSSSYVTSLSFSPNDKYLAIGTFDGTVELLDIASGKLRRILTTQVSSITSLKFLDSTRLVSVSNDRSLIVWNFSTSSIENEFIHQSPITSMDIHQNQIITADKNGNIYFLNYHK
UniProt Q54HY5: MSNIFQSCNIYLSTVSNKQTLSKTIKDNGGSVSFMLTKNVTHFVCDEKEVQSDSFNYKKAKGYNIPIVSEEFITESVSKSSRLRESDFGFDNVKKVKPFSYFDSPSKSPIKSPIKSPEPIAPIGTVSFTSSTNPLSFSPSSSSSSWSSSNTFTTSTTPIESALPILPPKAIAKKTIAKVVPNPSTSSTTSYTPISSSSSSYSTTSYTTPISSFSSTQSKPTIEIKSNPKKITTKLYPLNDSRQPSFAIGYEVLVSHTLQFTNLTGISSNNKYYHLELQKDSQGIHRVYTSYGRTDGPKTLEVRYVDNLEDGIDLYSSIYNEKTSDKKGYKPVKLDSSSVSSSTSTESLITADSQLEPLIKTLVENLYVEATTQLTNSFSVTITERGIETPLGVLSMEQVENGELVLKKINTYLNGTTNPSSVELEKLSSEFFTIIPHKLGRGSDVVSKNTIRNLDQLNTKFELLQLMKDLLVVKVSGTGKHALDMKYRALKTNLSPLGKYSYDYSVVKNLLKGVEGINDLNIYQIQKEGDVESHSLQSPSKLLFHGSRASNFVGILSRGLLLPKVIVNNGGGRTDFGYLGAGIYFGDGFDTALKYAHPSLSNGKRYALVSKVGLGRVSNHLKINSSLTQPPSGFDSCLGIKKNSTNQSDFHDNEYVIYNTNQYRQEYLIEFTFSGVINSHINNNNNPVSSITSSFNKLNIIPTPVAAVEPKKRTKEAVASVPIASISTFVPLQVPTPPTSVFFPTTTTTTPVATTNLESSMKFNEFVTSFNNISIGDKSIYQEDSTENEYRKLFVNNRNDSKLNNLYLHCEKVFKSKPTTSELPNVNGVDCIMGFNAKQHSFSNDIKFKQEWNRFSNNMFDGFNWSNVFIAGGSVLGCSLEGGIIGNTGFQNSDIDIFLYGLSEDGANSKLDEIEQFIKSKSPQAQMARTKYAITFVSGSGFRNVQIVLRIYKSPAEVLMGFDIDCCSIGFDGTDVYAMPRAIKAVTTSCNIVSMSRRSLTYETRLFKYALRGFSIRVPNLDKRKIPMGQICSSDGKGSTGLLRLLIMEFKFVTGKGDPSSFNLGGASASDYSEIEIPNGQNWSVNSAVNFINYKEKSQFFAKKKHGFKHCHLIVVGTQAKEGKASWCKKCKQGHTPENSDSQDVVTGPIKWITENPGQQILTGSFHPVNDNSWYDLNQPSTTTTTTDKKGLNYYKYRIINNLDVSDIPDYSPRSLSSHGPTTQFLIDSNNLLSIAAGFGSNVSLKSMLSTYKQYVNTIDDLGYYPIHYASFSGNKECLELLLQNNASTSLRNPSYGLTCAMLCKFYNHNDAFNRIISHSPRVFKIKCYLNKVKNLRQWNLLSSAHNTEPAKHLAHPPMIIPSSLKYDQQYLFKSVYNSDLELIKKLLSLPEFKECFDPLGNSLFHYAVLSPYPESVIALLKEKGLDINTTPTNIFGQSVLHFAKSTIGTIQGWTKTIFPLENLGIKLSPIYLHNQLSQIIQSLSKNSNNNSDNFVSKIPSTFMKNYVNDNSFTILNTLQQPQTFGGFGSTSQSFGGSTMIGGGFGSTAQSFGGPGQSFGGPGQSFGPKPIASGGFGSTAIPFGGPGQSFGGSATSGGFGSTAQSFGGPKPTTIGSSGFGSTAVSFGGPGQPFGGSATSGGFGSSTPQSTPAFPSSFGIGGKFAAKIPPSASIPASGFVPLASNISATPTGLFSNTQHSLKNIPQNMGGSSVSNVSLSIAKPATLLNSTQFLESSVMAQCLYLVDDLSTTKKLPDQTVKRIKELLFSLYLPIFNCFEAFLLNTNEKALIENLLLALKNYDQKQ

For experiment [1], the target named is T1, MVPA-TurboID (D. discoideum Major Vault Protein A fused to the TurboID biotin ligase) (D. discoideum) (UniProt P34118).
T1 sequence: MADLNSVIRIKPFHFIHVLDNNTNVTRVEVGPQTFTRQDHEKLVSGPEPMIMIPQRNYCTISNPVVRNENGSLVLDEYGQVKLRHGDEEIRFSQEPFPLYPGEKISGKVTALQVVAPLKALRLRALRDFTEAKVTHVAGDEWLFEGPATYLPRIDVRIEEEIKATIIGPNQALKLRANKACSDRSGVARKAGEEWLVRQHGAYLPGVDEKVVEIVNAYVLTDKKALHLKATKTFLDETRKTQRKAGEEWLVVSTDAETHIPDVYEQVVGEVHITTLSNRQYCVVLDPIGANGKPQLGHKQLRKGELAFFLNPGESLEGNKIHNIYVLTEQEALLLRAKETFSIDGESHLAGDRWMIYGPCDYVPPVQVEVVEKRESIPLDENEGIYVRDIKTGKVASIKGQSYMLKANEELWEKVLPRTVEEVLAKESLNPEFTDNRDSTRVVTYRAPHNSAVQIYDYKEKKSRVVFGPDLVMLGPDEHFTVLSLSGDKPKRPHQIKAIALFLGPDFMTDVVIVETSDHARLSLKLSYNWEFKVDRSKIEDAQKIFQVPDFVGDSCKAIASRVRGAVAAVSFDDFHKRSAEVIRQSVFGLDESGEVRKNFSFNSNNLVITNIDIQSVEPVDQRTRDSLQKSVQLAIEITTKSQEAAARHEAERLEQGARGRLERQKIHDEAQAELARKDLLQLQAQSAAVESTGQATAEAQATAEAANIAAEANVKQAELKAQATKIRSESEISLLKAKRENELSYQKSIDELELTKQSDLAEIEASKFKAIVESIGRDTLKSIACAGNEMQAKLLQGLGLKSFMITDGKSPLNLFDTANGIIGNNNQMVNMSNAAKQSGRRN
Kind of experiment: proximity labelling.

In experiment [2] the target is T1, MVPA-TurboID (D. discoideum Major Vault Protein A fused to the TurboID biotin ligase) (D. discoideum). Kind of experiment: proximity labelling. This is another data set of the same source.

Read-outs that look alike come from different tables or passages of the source. No constants are given. Whether binding was seen depends on the method and setting. In cells and extracts the contact can be indirect. Here binding means that the protein was enriched with, or labelled near, the bait; the list need not be complete. Where a sequence is shown, tags or fusion partners need not be part of it.

For the molecule “TEP1 (Q54CB5), likely Dictyostelium orthologue of Telomerase-associated protein 1 (from UniProt Q54CB5)”, in experiment [1], the binding result was “binds”.

Regarding “poly(ADP-ribose)polymerase Q54HY5 (from UniProt Q54HY5 1-1803) (enzyme)”, the binding result in experiment [1] is “binds”.

For “poly(ADP-ribose)polymerase Q54LJ4 (from UniProt Q54LJ4 1-2563) (enzyme)”, the binding entry in experiment [1] is recorded as “binds”.

B1: poly(ADP-ribose)polymerase Q8I7C6 (enzyme, UniProt Q8I7C6 1-700)
chain: MPPKKRQLSQSDEDVKTTTTTTTSTSTKPLTEIFDGIVFCFSGTFSVTQTELTKKVEGCGASTSKTCTAKVTHLVSTVDDFKKNGTAVSKALKSGIPIVTEGFITKSIEASKKLEEKDYSLSSSNDDEEEEEEEEEEEEEEEEEEVAKPTRRSSKKAPAKSEEKGEDKNKLTTRPTKKTKTNTSEAETKTAASDLDDSSSESEDEKNQISVKIKGRAANDPHFPDSRFHVYENGKDVYDATLNQTEISQNNNKFYIIQLLEADDGSSYSVWNRWGREGLKGQSSRKDFGKGGLNQAISLFCSKFYEKTKNTFTDRANFKKVAGKYDMIELDYSTDSKPKNGASTTATTTTTKKVVEHKKECSLDERVQELVKLIFDVKMMERTMTEAKYDLKKMPLGKLSKNQITKGYLVLKQIEDVMGGKSGESLSTLSSRFYTIIPHAFGMSVPPVINTNQMLIEKMNMLQNLADIEIATNIIKDSESDESNILELHYAKLKTDIQPLDENSCEYKNILLYVKNTYQGGKKPTIVNIFKIDRDGEADRYKTKKHLGNRKLLWHGSRLTNYASIISQGLRIAPPEAPVSGYRFGKGVYFADCMSLSANYCRTVGSNDFCMLLGDVALGKTADLARDTYMEKPQPNSHSTWALGTVEPDPKVFFQDTEGCITPYGQMIPSQHKGVSCYEHQYVVYDVAQVHLKYLLQLRN
Take B1: the binding entry in experiment [2] was “binds”.

B2: endogenous Major Vault Protein B (MVPB) of D. discoideum (protein, UniProt P54659 1-846)
chain: MATPVQASTVIRVKPHHYIHVLDNNTNVTRVEVGPQTFTRQDHERVLNPTPLPMILIPPRQYCIIENPIIRDKEGKLVVDKFNQPKLRHGDQEIRFSQDPFPLYPGEVVIAQPVPLQVIQTNSALRLKCLRDFVEVKADKTTVSHIAGDEWLFEGPGTYYPRVEVQVVEPVRAVIIKENQALKLRARLSFVDRRDVVRQVGEEWLVRESGAYLPGVSEEIVGFIQALVLTDRIAYQLLATRSFTDSFGKVRKAGEEWIITQKDCDTYIPDVNEKVIRDIKAITLTNRQYCIVENPIDPKTGKNKLGHKELLQGDRTFFLMPGESLVKGIQNVNVLSEDEALLLSAKEEFVEKKGTTTIVHKPGDLWMIYGPCDYIPPIQVDVVERRKRIPLDVNEGIYVRDIKTGKVRSVHGSSYMLLPNEERWAKPLAPIVEELLKKSASRDQNEEHNESDRDSTKVITYRVPHNAAVQIFDYRKKEARVVFGPELVMLEPDEEFTVLSLSGKIPKRPNHIRSLALFLGPDFMTDLITVETADHARLSLKLSYNWHFKVEQDNPSKLFATSDFTGDLCKATGSLVRAAVAASTFDNFHKHSSDIIQQAVFGSTDGSSNDCLYFETNGLVITNIDVQSVEPVDQRTLDSLQKSVQLAIEITTKSQEATARQEAERLEQMARGELERQKIIDEAKNEESRSKLVQLQAQSAAVESTGQAVAEARARAEAAIIEAESEIKQARLSTRAIEIEALSEIENLKAKHIVEIQHIKSLNNLELIKAKESATIETTKFENYVEALGSDTIKSIAQAPEETKAKLLAGLGLKSFMITDGKSPLNLFDTANGLIADAQRSEVDEE
Take B2: the binding entry in experiment [2] is listed as “binds”.

B3: poly(ADP-ribose)polymerase Q55GU8 (enzyme, UniProt Q55GU8 1-644)
chain: MEKHQNQVIEENRSKPLINLTFFIDSKSKFKVSNYTLSKLIKDEFGGSIAFTLNPKVDYVITTSANFFSTKTTTFLSNQDLSKIKLINEDYFISQQKLEPTQRSKINDSYSIGNKQDSQVVNVCKKENDVVEKADDDLLKIIINPKHIPSVCYGANELKQPYFPEEYLILKSNLLSSTIIGKQNTNKFFYLELHQAIDNNLKKFYRIFTQFGRTDEIQKSNSQHRYVSNDLKEAMALYSSIYSQKIESDNGYIEVKMNSITKIGSKLKLAQLKQQKENDVNANTHIKVYNEETGEEETGQQSLFQRSYIETNVSKLMDIIYKEASKCLIKNFSVEVTENGIETQLGALSMAQIEEAKSILNEINNVLNKDGIDNQENLEMLSSRFYQLVPSKISTKKNRDSSKSVINSFESLNQLSELMNMMKDLTNSFNSNKTTSESKNHLDMKYYALNTHIEHLHQASAGYQIFIRNFLSNPHHQKAIDNGEIKILNCYRLDKKLESDNFLDVGNVQYLYHGSKPQNLVGLLSRGILPPDYVKQIGGKRTDFGYLGSGIYFSDDVVSSTYTSPIGEKGSRFIIMSSVSLGKVKEFSKIQPSLQCAPSGHHSCKGLKSTPTNPTDFKNNEYVVFNPNQSKLSFLIEYIENYKK
As to B3, the binding result in experiment [2] is recorded as “binds”.
